Measured values published in patent US12091696B2, “O-methyltransferase protein with highly specific catalytic function for multiple bias parent nuclei and encoding gene and use thereof” (INSTITUTE OF CHINESE MATERIA MEDICA CHINA ACADEMY OF …, priority 2023, dated 2024).
Some entries share one result that the patent states for a list of compounds.

Test system: wild-type O-methyltransferase
Test: In vitro enzymatic activity of wild-type O-methyltransferase (comparison with mutant)
Type: biochemical, Nelumbo nucifera
Conditions: same method as Example 1
Description: An in vitro enzymatic activity reaction was conducted at a pH value of 8.0 and 37° C. for 12 h in a 100 μL system containing 50 mM of a potassium phosphate buffer, 100 μM of a substrate, 200 μM of a SAM donor, and 50 μg of the purified protein. 100 μL of methanol was added to terminate the above reaction, the protein was centrifuged at 12,000×g for 30 min in a centrifuge, and a resulting supernatant was passed through a 0.22 μm microporous membrane and injected into UPLC-QTOF-MS/MS for detection. A sample prepared in a same way with boiled purified protein was served as a negative control.
A specific experimental method was the same as that in Example 1.

| Compound | catalytic conversion rate by wild-type O-methyltransferase |
| --- | --- |
| COc1cc2c(cc1O)[C@@H]1Cc3ccc(OC)c(O)c3CN1CC2 [Compound 13, scoulerine] | less than 2% |
| asimilobine [Compound 7] | less than 2% |
